From article PMC9557730
Residue numbers refer to the chain shown, from its start. These are yes or no findings as the source states them, for the method shown. In cells and extracts the contact can be indirect. Some results given as binding are weak or reduced against the parent protein; the word gives no strength. Tags and fused reporters may be left off the sequences shown.

Protein sequences, listed by entry. Tags and fused reporters are not part of them. Lines headed by an entry give the natural chain unless they say otherwise; changes in a name come on top.
UniProt P50613: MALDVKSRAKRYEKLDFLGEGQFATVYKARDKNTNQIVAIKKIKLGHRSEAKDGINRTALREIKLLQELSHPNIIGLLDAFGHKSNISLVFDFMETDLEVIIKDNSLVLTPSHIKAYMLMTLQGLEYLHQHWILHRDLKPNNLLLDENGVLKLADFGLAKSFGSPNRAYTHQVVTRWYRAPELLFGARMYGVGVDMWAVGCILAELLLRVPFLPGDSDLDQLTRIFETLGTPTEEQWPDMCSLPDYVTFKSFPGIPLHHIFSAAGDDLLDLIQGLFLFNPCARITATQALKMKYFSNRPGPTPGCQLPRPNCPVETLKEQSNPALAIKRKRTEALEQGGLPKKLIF

How the values were obtained:
Test in all cases: co-IP; N- or C-terminal 3x FLAG-p52 transfected into HEK293T; nuclear extract (RIPA, benzonase) on FLAG-M2 agarose 3 h at 4 °C; washes 0.5 M and 0.15 M HEGN; FLAG peptide elution; Western blot
[1] = biological target: T1, N-terminal 3×-FLAG-tagged p52 E310F (human) (UniProt Q92759)
T1 sequence: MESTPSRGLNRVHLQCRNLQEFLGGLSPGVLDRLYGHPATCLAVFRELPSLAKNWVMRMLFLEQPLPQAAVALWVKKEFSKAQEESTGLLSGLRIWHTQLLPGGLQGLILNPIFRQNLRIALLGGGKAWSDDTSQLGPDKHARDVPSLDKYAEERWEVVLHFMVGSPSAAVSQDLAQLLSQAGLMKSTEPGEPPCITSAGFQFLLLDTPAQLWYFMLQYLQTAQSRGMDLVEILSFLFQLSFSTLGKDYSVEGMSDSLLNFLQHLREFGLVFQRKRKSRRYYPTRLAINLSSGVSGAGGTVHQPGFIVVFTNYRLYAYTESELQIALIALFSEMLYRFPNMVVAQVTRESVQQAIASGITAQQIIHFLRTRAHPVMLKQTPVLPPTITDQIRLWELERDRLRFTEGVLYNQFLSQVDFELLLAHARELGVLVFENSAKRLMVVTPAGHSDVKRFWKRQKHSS

[2] = biological target: T2, N-terminal 3×-FLAG-tagged p52 YY316+318AA (human) (UniProt Q92759)
T2 sequence: T1 sequence with F310E, Y316A, Y318A

[3] = biological target: T3, N-terminal 3×-FLAG-tagged p52 (WT) (human) (UniProt Q92759)
T3 sequence: T1 sequence with F310E

[4] = biological target: T4, N-terminal 3×-FLAG-tagged p52 RF337–338AA (human) (UniProt Q92759)
T4 sequence: T1 sequence with F310E, R337A, F338A

[5] = biological target: T5, C-terminal 3×-FLAG-tagged p52 (human) (UniProt Q92759)
T5 sequence: T1 sequence with F310E

[6] = biological target: T6, N-terminal 3×-FLAG-tagged p52 ER310+314AA (human) (UniProt Q92759)
T6 sequence: T1 sequence with F310A, R314A

binding [1] | binding [2] | binding [3] | binding [4] | binding [5] | binding [6] | Substance
no binding | no binding | no binding | no binding | no binding | no binding | CDK-activating kinase (CAK) module (from UniProt P50613 1-346; P51946 1-323; P51948 1-309) (complex)
binds | binds | binds | binds |  | binds | XPD (from UniProt P18074 1-760)
